Assay results taken from PubChem BioAssay AID504842 (National Center for Advancing Translational Sciences (NCATS), 2011).
Among all 330,000 compounds or so, about 100 (0.03%) were called active. The shares of active, inactive and inconclusive entries below differ from those in the screen. Calls come from the whole dose curve; as a rule, active = well fitted inhibition curve with a large enough effect; inconclusive = small, poorly fitted or top-dose-only effect; inactive = flat fitted curve, though single readings scatter. Where the call is inconclusive, the potency comes from a doubtful curve fit.

System: Chaperonin Mm-Cpn (Methanococcus maripaludis)
Assay: Inhibitors of TCP-1 ring complex (TRiC) of Methanococcus maripaludis (MmCpn): qHTS; note: nearly all actives have a fitted effect of over 80% in size;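 for potency: enzyme at 25 nM with ATP substrate at 10 µM during the reaction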
Conditions: purified Mm-Cpn ATPase, ADP Transcreener TR-FRET; activity, negative = inhibition: at the top concentration
Procedure, shortened: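 Inhibition of chaperonin ATP hydrolysis is measured as reduced ADP production, detected by competitive TR-FRET in which signal falls with ADP. Final enzyme 25 nM and ATP 10 uM, reacted 30 min at 37°C.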
% is set by controls: 0 for no effect and ±100 for the full control effect; potency is the fitted concentration of half-maximal effect.

Row | SMILES | activity, negative = inhibition | Potency
1 | Cn1cnnc1SC1CCCCC1NS(=O)(=O)c1ccccc1 (stereo not given) | inactive: -1.03% | –
2 | COc1ccc2sc(-c3ccc(S(C)(=O)=O)cc3)c(-c3ccc(SC)cc3)c2c1 | – | active: 20 µM
3 | CCOc1ccc(CNC(=O)c2ccc(Sc3ccc(C)cc3)c(NC(C)=O)c2)cc1 | – | inconclusive: 398 µM [inhibitor, partial curve, poor fit]
4 | Cc1ccc(C)c(NS(=O)(=O)c2cc3c4c(c2)CC(=O)N4CCC3)c1 | – | inconclusive: 63.1 µM [inhibitor, single point]
5 | Cc1nc2ccccc2c(=O)n1/N=C/c1ccccn1 | – | inconclusive: 20 µM [inhibitor, single point]
6 | CCc1ccc2[nH]c(C(=O)Nc3ccc(F)cc3Br)cc2c1 | – | inconclusive: 126 µM [inhibitor, partial curve, poor fit]
7 | O=C(Nc1cccc([N+](=O)[O-])c1)c1ccc(-c2ccccc2)cc1 | – | inconclusive: 100 µM [inhibitor, single point]
8 | O=C(c1ccc(CS(=O)Cc2ccc(Cl)cc2)o1)N1CCN(c2ccccn2)CC1 (stereo not given) | inactive: -0.26% | –
9 | O=C(COc1ccccc1)Nc1nnc(-c2ccc(Cl)cc2)o1 | inactive: 1.11% | –
10 | Cc1ccccc1Cc1c(C)nc2c(C(=O)NCc3ccc4c(c3)OCO4)cnn2c1C | inactive: 1.76% | –
11 | CC(=O)c1c(C)[nH]c(C(=O)/C(C#N)=C/c2cccc(C)c2)c1C | – | inconclusive: 63.1 µM [inhibitor, single point]
12 | CCC1CCCCN1CCCNC(=O)c1ccc2nc(N3CCCCC3)sc2c1 (stereo not given) | – | inconclusive: 79.4 µM [inhibitor, single point]
13 | COc1ccccc1OCc1ccc(C(=O)NC(C)c2ccccc2)o1 (stereo not given) | – | inconclusive: 14.1 µM [inhibitor, single point]
14 | CC(=O)c1cccc(NC(=S)NC(=O)c2cccc(Cl)c2)c1 | – | inconclusive: 35.5 µM [inhibitor, single point]
15 | Cc1nn(-c2ccccc2)c(C)c1C(=O)NCc1ccccc1F | – | inconclusive: 50.1 µM [inhibitor, single point]
16 | Cc1ccccc1NC(=O)CSc1nc2ccccc2c2nc(CCn3cncc3C)nn12 | – | inconclusive: 251 µM [inhibitor, partial curve, poor fit]
17 | CCOc1ccc(CCNC(=O)C2CCN(S(=O)(=O)c3ccc(C)cc3)CC2)cc1OCC | – | inconclusive: 79.4 µM [inhibitor, single point]
18 | CN(c1ccccc1)S(=O)(=O)c1cccc(NC(=O)c2cccc(C#N)c2)c1 | inactive: -21.5% | –
19 | Cc1ccc(OCC(=O)N2CCN(c3ccc([N+](=O)[O-])c(N4CCOCC4)c3)CC2)cc1 | – | inconclusive: 100 µM [inhibitor, single point]
20 | COc1cc(OC)c(C2N(C)c3ccccc3N2C)cc1OC | inactive: -0.633% | –
21 | COc1ccc(C2=CSC3=NCCN23)cc1[N+](=O)[O-] | – | inconclusive: 79.4 µM [inhibitor, single point]
22 | O=C(COc1ccccc1)NCC(=O)N/N=C/c1ccc(O)cc1O | – | inconclusive: 22.4 µM [inhibitor, single point]
23 | COc1cccc(N2C(=O)C(CC(=O)Nc3ccc(F)cc3)N(C3CCCCC3)C2=O)c1 (stereo not given) | – | inconclusive: 17.8 µM [inhibitor, single point]

Part of the list above, with tabs:
Row	SMILES	activity, negative = inhibition	Potency
2	COc1ccc2sc(-c3ccc(S(C)(=O)=O)cc3)c(-c3ccc(SC)cc3)c2c1	–	active: 20 µM
3	CCOc1ccc(CNC(=O)c2ccc(Sc3ccc(C)cc3)c(NC(C)=O)c2)cc1	–	inconclusive: 398 µM [inhibitor, partial curve, poor fit]
4	Cc1ccc(C)c(NS(=O)(=O)c2cc3c4c(c2)CC(=O)N4CCC3)c1	–	inconclusive: 63.1 µM [inhibitor, single point]
5	Cc1nc2ccccc2c(=O)n1/N=C/c1ccccn1	–	inconclusive: 20 µM [inhibitor, single point]
6	CCc1ccc2[nH]c(C(=O)Nc3ccc(F)cc3Br)cc2c1	–	inconclusive: 126 µM [inhibitor, partial curve, poor fit]
7	O=C(Nc1cccc([N+](=O)[O-])c1)c1ccc(-c2ccccc2)cc1	–	inconclusive: 100 µM [inhibitor, single point]
8	O=C(c1ccc(CS(=O)Cc2ccc(Cl)cc2)o1)N1CCN(c2ccccn2)CC1 (stereo not given)	inactive: -0.26%	–
9	O=C(COc1ccccc1)Nc1nnc(-c2ccc(Cl)cc2)o1	inactive: 1.11%	–
10	Cc1ccccc1Cc1c(C)nc2c(C(=O)NCc3ccc4c(c3)OCO4)cnn2c1C	inactive: 1.76%	–
11	CC(=O)c1c(C)[nH]c(C(=O)/C(C#N)=C/c2cccc(C)c2)c1C	–	inconclusive: 63.1 µM [inhibitor, single point]
12	CCC1CCCCN1CCCNC(=O)c1ccc2nc(N3CCCCC3)sc2c1 (stereo not given)	–	inconclusive: 79.4 µM [inhibitor, single point]
13	COc1ccccc1OCc1ccc(C(=O)NC(C)c2ccccc2)o1 (stereo not given)	–	inconclusive: 14.1 µM [inhibitor, single point]

Next part

Row | SMILES | activity, negative = inhibition | Potency
24 | NC(=O)C1CCN(CC(=O)Nc2cc(S(=O)(=O)N3CCOCC3)ccc2N2CCCC2)CC1 | – | inconclusive: 17.8 µM [inhibitor, single point]
25 | CCOc1ccc(-n2c(=O)[nH]cc(C(=O)Nc3ccc(OC)c(OC)c3)c2=O)cc1 | – | inconclusive: 100 µM [inhibitor, single point]
26 | CCC(=O)Nc1cc2nn(-c3ccc(OC)cc3)nc2cc1C | inactive: -5.07% | –
27 | Cc1cc(C)c2c(n1)sc1c(-c3ccccc3)c(C#N)c(N)nc12 | inactive: 0.145% | –
28 | Cc1nnc(SCC(=O)N2CC(=O)Nc3ccccc32)n1Cc1ccccc1 | inactive: -1.76% | –
29 | Cc1ccccc1SCC(=O)NC1CCOC1=O (stereo not given) | – | inconclusive: 20 µM [inhibitor, single point]
30 | COC(=O)c1sc2ncn(CC(=O)NCCc3ccc(OC)c(OC)c3)c(=O)c2c1C | – | inconclusive: 100 µM [inhibitor, single point]
31 | CCOc1ccc(OCCOCCN2CCc3ccccc3C2)cc1 | inactive: -1.21% | –
32 | COC(=O)COc1ccc(S(=O)(=O)N2CCN(c3ccccc3F)CC2)cc1 | – | inconclusive: 22.4 µM [inhibitor, single point]
33 | O=C(c1cccc(Br)c1)N1CCCc2ccccc21 | inactive: -0.493% | –
34 | O=C(Nc1cccc2cccnc12)c1cccc([N+](=O)[O-])c1 | – | inconclusive: 251 µM [inhibitor, partial curve, poor fit]
35 | CCOC(=O)c1sc(N(Cc2ccccc2)C(=O)COC(=O)c2ccccc2O)nc1C | inactive: -2.81% | –
36 | Cc1ccccc1NS(=O)(=O)c1ccc(C(=O)NCC(c2ccccc2)N(C)C)cc1 (stereo not given) | – | inconclusive: 10 µM [inhibitor, single point]
37 | COCCOC(=O)c1[nH]c2c(c1C)C(=O)CC(c1ccco1)C2 (stereo not given) | inactive: -4.07% | –
38 | Cc1ccc(/C=N/NC(=O)Cc2cccn2C)cc1 | – | inconclusive: 2510 µM [inhibitor, partial curve, poor fit]
39 | Cc1ccc(-n2c(C(C)C)nc3oc4ccccc4c(=O)c3c2=O)cc1 | – | inconclusive: 12.6 µM [inhibitor, single point]
40 | O=C(COc1ccccc1)N(CCc1ccccc1)c1nc(-c2ccc(F)cc2)cs1 | – | inconclusive: 17.8 µM [inhibitor, single point]
41 | O=C(Nc1ccccn1)c1cccnc1 | – | inconclusive: 89.1 µM [inhibitor, single point]
42 | O=C(C[n+]1cc(Br)cc2ccccc21)c1ccc(F)cc1 | – | inconclusive: 100 µM [inhibitor, single point]
43 | Cn1c(=O)n(C)c2cc([N+](=O)[O-])c(N3CCN(C(=O)c4ccccc4)CC3)cc21 | – | inconclusive: 14.1 µM [inhibitor, single point]
44 | NS(=O)(=O)c1ccc(Cc2ncc(C(F)(F)F)cc2Cl)s1 | inactive: -2.32% | –
45 | COc1ccc(CCn2c(=N)c(C(=O)N3CCN(C)CC3)cc3c(=O)n4ccccc4nc32)cc1 | inactive: 0.524% | –
